Measurements reported in PubChem BioAssay AID1508597 (Cure First, 2020)
This is a random part of the about 2,100 reagents, under one of the conditions tested. 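Calls flag viability under 80% in either arm, not effects specific to rucaparib; the reference for percent is not stated.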 Entries without a mark were called inactive. A reagent listed more than once was tested more than once; the source does not tell the runs apart. No sequences are given here. Not stated in the record: the 100% reference.

Test: 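Genes whose silencing sensitises or protects ovarian cancer cells against rucaparib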 (primary screen)
System: human ovarian carcinoma lines grown from tumours: OCI-P5x (papillary serous) and OCI-C5x (clear cell)
Knock-down reagent: siRNA pool against human genes, 1.25 pmol siRNA per well
Time to read-out: 72 h or 96 h, depending on the cell culture
Conditions: rucaparib 20 µM (about IC30) or vehicle, present until read-out
Rucaparib or vehicle: Vehicle
Cell line: OCI-C5x (clear cell)
Measured: 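Luminescent ATP-based viability assay read 72 or 96 h after transfection, depending on culture, given as normalised percent viability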
Reading the numbers: viability, normalised: higher = more viable cells remaining
Call rule: 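Active when normalised viability falls below 80 percent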
Meaning of the calls: active = viability under 80%; inactive = viability 80% or more

The opening 3 entries as a preview:
gene knocked down	technical replicate	viability, normalised (%)
AURKA (aurora kinase A)	1	46.5 (active)
AURKA (aurora kinase A)	1	21.4 (active)
AURKA (aurora kinase A)	2	44.9 (active)

The list itself, repeating the preview:
gene knocked down	technical replicate	viability, normalised (%)
AURKA (aurora kinase A)	1	46.5 (active)
AURKA (aurora kinase A)	1	21.4 (active)
AURKA (aurora kinase A)	2	44.9 (active)
AURKA (aurora kinase A)	2	29.4 (active)
AURKA (aurora kinase A)	3	30.2 (active)
AURKA (aurora kinase A)	3	38.6 (active)
BORA (BORA aurora kinase A activator)	1	24.5 (active)
BORA (BORA aurora kinase A activator)	2	34.1 (active)
BORA (BORA aurora kinase A activator)	3	21.1 (active)
ULK4 (unc-51 like kinase 4)	1	47.2 (active)
ULK4 (unc-51 like kinase 4)	2	48.6 (active)
ULK4 (unc-51 like kinase 4)	3	42.7 (active)
RIPK4 (receptor interacting serine/threonine kinase 4)	1	45.8 (active)
RIPK4 (receptor interacting serine/threonine kinase 4)	2	47.5 (active)
RIPK4 (receptor interacting serine/threonine kinase 4)	3	44.3 (active)
PHF11 (PHD finger protein 11)	1	41.7 (active)
PHF11 (PHD finger protein 11)	2	35.3 (active)
PHF11 (PHD finger protein 11)	3	56.1 (active)
IRAK3 (interleukin 1 receptor associated kinase 3)	1	45.2 (active)
IRAK3 (interleukin 1 receptor associated kinase 3)	2	54.1 (active)
IRAK3 (interleukin 1 receptor associated kinase 3)	3	47.4 (active)
DDX27 (DEAD-box helicase 27)	1	48.1 (active)
DDX27 (DEAD-box helicase 27)	2	44.4 (active)
DDX27 (DEAD-box helicase 27)	3	49.4 (active)
